JP2017222678A
No constants are given. Whether binding was seen depends on the method and setting. Some binding calls cover weakened binding; strength is not graded here.

Amino acid sequences for entries named in this document (tags omitted). Residues count along the entry.
UniProt P10646, residues 29-304: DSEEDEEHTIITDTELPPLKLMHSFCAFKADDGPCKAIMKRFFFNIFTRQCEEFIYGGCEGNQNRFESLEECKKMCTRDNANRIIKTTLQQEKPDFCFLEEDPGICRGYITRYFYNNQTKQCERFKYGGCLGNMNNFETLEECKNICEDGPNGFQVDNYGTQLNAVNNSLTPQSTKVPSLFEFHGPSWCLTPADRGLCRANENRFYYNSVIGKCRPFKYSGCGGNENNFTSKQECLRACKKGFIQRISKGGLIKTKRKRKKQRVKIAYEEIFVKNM

B1: TP-2A5.1 (Fab, V domains shown)
VH: QVQLVESGGGLVQPGGSLRLSCAASGFTFSSYGSWVRQAPGKGLEWVSVISGSGSSTYYADSVKGRFTISRDNSKNTLYLQMNSLRAEDTAVYYCARVNISTHFDVWGQGTLVTVSS
VL: DIELTQPPSVSVAPGQTARISCSGDNIPEKYVHWYQQKPGQAPVLVIHGDNNRPSGIPERFSGSNSGNTATLTISGTQAEDEADYYCQSFDAGSYFVFGGGTKLTVLG
B2: TP-2G6 (Fab, V domains shown)
VH: QVQLQQSGPGLVKPSQTLSLTCAISGDSVSSSSAAWSWIRQSPGRGLEWLGIIYYRSKWYNDYAVSVKSRITINPDTSKNQFSLQLNSVTPEDTAVYYCARHSMVGFDVWGQGTLVTVSS
VL: DIVLTQSPATLSLSPGERATLSCRASQYVTSSYLAWYQQKPGQAPRLLIYGSSRATGVPARFSGSGSGTDFTLTISSLEPEDFATYYCQQYSSSPITFGQGTKVEIKR
B3: TP-2A6 (Fab, V domains shown)
VH: QVQLVESGGGLVQPGGSLRLSCAASGFTFSRYAMSWVRQAPGKGLEWVSSIISSSSETYYADSVKGRFTISRDNSKNTLYLQMNSLRAEDTAVYYCARLMGYGHYYPFDYWGQGTLVTVSS
VL: DIELTQPPSVSVAPGQTARISCSGDKIGSKYVYWYQQKPGQAPVLVIYDSNRPSGIPERFSGSNSGNTATLTISGTQAEDEADYYCASYDSIYSYWVFGGGTKLTVLG
B4: TP-3D3 (Fab, V domains shown)
VH: QVQLVESGGGLVQPGGSLRLSCAASGFTFSSYASWVRQAPGKGLEWVSGISGDGSNTHYADSVKGRFTISRDNSKNTLYLQMNSLRAEDTAVYYCARYDNFYFDVWGQGTLVTVSS
VL: DIELTQPPSVSVAPGQTARISCSGDSLGSKFAHWYQQKPGQAPVLVIYDDSNRPSGIPERFSGSNSGNTATLTISGTQAEDEADYYCSTYTSRSHSYVFGGGTKLTVLG
B5: TP-3F1 (Fab, V domains shown)
VH: QVQLVQSGAEVKKPGESLKISCKGSGYSFTDYWIGWVRQMPGKGLEWMGIIQPSDSDTNYSPSFQGQVTISADKSISTAYLQWSSLKASDTAMYYCARFMWWGKYDSGFDVWGQGTLVTVSS
VL: DIELTQPPSVSVAPGQTARISCSGDNIGSYFASWYQQKPGQAPVLVIYDDSNRPSGIPERFSGSNSGNTATLTISGTQAEDEADYYCEGSNVFGGGTKLTVLG
B6: TP-4A9 (Fab, V domains shown)
VH: QVQLVESGGGLVQPGGSLRLSCAASGFTFSSYGMSWVRQAPGKGLEWVSLISGVSSSTYYADSVKGRFTISRDNSKNTLYLQMNSLRAEDTAVYYCARSYLGYFDVWGQGTLVTVSS
VL: DIELTQPPSVSVAPGQTARISCSGDALGKYYASWYQQKPGQAPVLVIYGDNKRPSGIPERFSGSNSGNTATLTISGTQAEDEADYYCQSYTTRSLVFGGGTKLTVLG
B7: TP-4E8 (Fab, V domains shown)
VH: QVQLVESGGGLVQPGGSLRLSCAASGFTFNDYAMSWVRQAPGKGLEWVSLIESVSSSTYYADSVKGRFTISRDNSKNTLYLQMNSLRAEDTAVYYCARTIGVLWDDVWGQGTLVTVSS
VL: DIELTQPPSVSVAPGQTARISCSGDALGSKYVSWYQQKPGQAPVLVIYGDNKRPSGIPERFSGSNSGNTATLTISGTQAEDEADYYCQSYTYSLNQVFGGGTKLTVLG
B8: TP-4G8 (Fab, V domains shown)
VH: QVQLVESGGGLVQPGGSLRLSCAASGFTFSTYAMHWVRQAPGKGLEWVSTISGYGSFTYYADSVKGRFTISRDNSKNTLYLQMNSLRAEDTAVYYCARNGRKYGQMDNWGQGTLVTVSS
VL: DIELTQPPSVSVAPGQTARISCSGDKLGSKSVHWYQQKPGQAPVLVIYRDTDRPSGIPERFSGSNSGNTATLTISGTQAEDEADYYCQTYDYILNVFGGGTKLTVLG
B9: TP-4H8 (Fab, V domains shown)
VH: QVQLVESGGGLVQPGGSLRLSCAASGFTFSDHAMHWVRQAPGKGLEWVSVIEYSGSKTNYADSVKGRFTISRDNSKNTLYLQMNSLRAEDTAVYYCARGDYYPYLVFAIWGQGTLVTVSS
VL: DIELTQPPSVSVAPGQTARISCSGDSIGKKYVHWYQQKPGQAPVLVIYGDNNRPSGIPERFSGSNSGNTATLTISGTQAEDEADYYCSTADSVITYKNVFGGGTKLTVLG

molecular target: ヒトTFPI (human tissue factor pathway inhibitor; American Diagnostica) (human) (UniProt P10646); test: ELISA, Fab in bacterial lysate on coated human TFPI

Binder	binding
B1	binds
B2	binds
B3	binds
B4	binds
B5	binds
B6	binds
B7	binds
B8	binds
B9	binds
